# Test: peptide made by a vendor
# Conditions: whole synthesis, 220nm
row,Substance,final HPLC purity [%]
1,H-AVAEIQLMHQRAKWIQDARRRAFLHKLIAEIHTAEI-OH,95.32
2,H-AVAEHQLMHQRAKWLNSMERVEWLRKKLQDVHNF-OH,95.24
3,H-AVAEHQLMHQLAKWIQDARRRAFLHKLIAEIHTAEI-OH,97.52
4,H-SVSEHQLMHNLGKHIQDARRRAFLHKLIAEIHTAEI-OH,95.52
5,H-AVAEHQLMHQRAKWIQDARRRAFLHKLIAEIHTAEI,95.22
6,H-AVAEIQLMHQRAKSIQDARRRAFLHKLIAEIHTAEI,95.28
7,H-AVAEHQLMHNRAKWIQDARRRAFLHKLIAEIHTAEI-OH,95.98
8,H-AVSEHQLMHQRAKWIQDARRRAFLHKLIAEIHTAEI-OH,95.66
9,H-AVAEHQLMHQRGKWIQDARRRAFLHKLIAEIHTAEI-OH,99.36
10,H-AVAEIQLLHQRAKWIQDARRRAFLHKLIAEIHTAEI,97.82
11,H-AVSEHQLLHDKGKSIQDLRRRELLEKLL-{Aib}-KLHTA-NH2,95.58
12,H-AVAEHQLMHQRAKHIQDARRRAFLHKLIAEIHTAEI-OH,95.39
13,H-SVAEHQLMHQRAKWIQDARRRAFLHKLIAEIHTAEI-OH,95.35
14,H-AVSEIQLLHDKGKSIQDLRRRELLEKLL-{Aib}-KLHTA-NH2,97.36
15,H-SVSEIQLMHNLGKHLNSMERVEWLRKKLQDVHNF-OH,95.10
16,H-AVAEHQLMHQRAKWIQDLRRRFFLHHLIAEIHTAEI-NH2,96.98
17,H-SVSEHQLMHNLGKHLNSMERVEWLRKKLQDVHNF-OH,95.33

# Reference: publication PMC9586930 (Nature Communications, 2022)
